PubChem BioAssay AID330 (DTP/NCI, 2004)
The list is a part of this screen's results and no random one: it gathers tests that were run many times, whatever their T/C, doses with no T/C, and many T/C values between a quarter and a half above the control. Other doses and runs of a compound stand elsewhere. T/C: endpoint of the treated group in % of that of the vehicle group. Some doses have a count of surviving animals in place of a T/C: the source holds a T/C of zero for them, seemingly a mark for toxic or unscored doses. Some survivor counts are full or nearly so, which does not show that the dose was tolerated: survival well below the control is almost never listed, so the zero probably covers shortened survival too. Counts of survivors are from the toxicity check (mostly the fifth day) where no day follows; animals may have died later. Schedule codes are those of the source, read here as Q, the interval in days (D) or hours (H), X, the number of doses. Some entries hold several experiments; the values are given in rising order. Some schedules carry Z or #; the key to these is not given. For survival time, the PubChem record calls one and a half times the control and up active, and a quarter to a half above the control has no call in these data; cut-offs in other NCI protocols can differ. Some T/C values carry the count of animals alive at the toxicity check (mostly the fifth day); without a count, all were alive then.

System: P388 leukemia ip, CD2F1 mice, survival T/C
Experiment: NCI In Vivo Anticancer Drug Screen. Data for tumor model P388 Leukemia (intraperitoneal) in CD2F1 (CDF1) mice
Conditions: T/C endpoint: median survival time, higher T/C = longer survival
[1] = dose: 25.0 mg/kg/injection, schedule: Q01DX009 (ip), vehicle: Klucel (hydroxypropylcellulose) (HPC)
[2] = dose: 100.0 mg/kg/injection, schedule: Q01DX009 (ip), vehicle: Klucel (hydroxypropylcellulose) (HPC)
[3] = dose: 200.0 mg/kg/injection, schedule: Q01DX009 (ip), vehicle: Klucel (hydroxypropylcellulose) (HPC)
[4] = dose: 200.0 mg/kg/injection, schedule: Q01DX005 (ip), vehicle: saline with Tween-80
[5] = dose: 100.0 mg/kg/injection, schedule: Q04DX002 (ip), vehicle: saline with Tween-80
[6] = dose: 400.0 mg/kg/injection, schedule: Q04DX002 (ip), vehicle: saline with Tween-80
[7] = dose: 200.0 mg/kg/injection, schedule: Q01DX009 (ip), vehicle: saline with Tween-80
[8] = dose: 200.0 mg/kg/injection, schedule: Q04DX002 (ip), vehicle: saline with Tween-80
[9] = dose: 50.0 mg/kg/injection, schedule: Q01DX009 (ip), vehicle: saline with Tween-80
[10] = dose: 100.0 mg/kg/injection, schedule: Q01DX009 (ip), vehicle: saline with Tween-80
[11] = dose: 240.0 mg/kg/injection, schedule: Q01DX005 (ip), vehicle: saline with Tween-80

CSc1cccc(NC(=O)N2CCN(c3ccccc3)CC2)c1
survivor count (dose: 50.0 mg/kg/injection, schedule: Q01DX009 (ip), vehicle: DMSO): 4 of 6
survivor count (dose: 100.0 mg/kg/injection, schedule: Q01DX009 (ip), vehicle: DMSO): 0 of 6
survivor count (dose: 200.0 mg/kg/injection, schedule: Q01DX009 (ip), vehicle: DMSO): 0 of 6

C/C(=N\N=C(/[Se])N1CC2CCC(CC2)C1)c1ccccn1
T/C (dose: 3.12 mg/kg/injection, schedule: Q01DX009 (ip), vehicle: Klucel (hydroxypropylcellulose) (HPC)): 125 % of control
T/C (dose: 6.25 mg/kg/injection, schedule: Q01DX009 (ip), vehicle: Klucel (hydroxypropylcellulose) (HPC)): 129 and 133 % of control
survivor count (dose: 12.5 mg/kg/injection, schedule: Q01DX009 (ip), vehicle: Klucel (hydroxypropylcellulose) (HPC)): 5 of 6
survivor count [1]: 5 of 6
survivor count (dose: 50.0 mg/kg/injection, schedule: Q01DX009 (ip), vehicle: Klucel (hydroxypropylcellulose) (HPC)): 2 of 6 and 5 of 6
survivor count [2]: 0 of 6
survivor count [3]: 0 of 6

CC/C(=C/C(F)(F)C(F)(F)C(F)(F)F)[N+](=O)[O-]
survivor count [3]: 0 of 6

Cc1ccc(C)n1-c1ccsc1C(=O)NNC(=O)CCl
survivor count (dose: 60.0 mg/kg/injection, schedule: Q01DX005 (ip), vehicle: Klucel (hydroxypropylcellulose) (HPC)): 5 of 6
survivor count (dose: 120.0 mg/kg/injection, schedule: Q01DX005 (ip), vehicle: Klucel (hydroxypropylcellulose) (HPC)): 0 of 6
survivor count (dose: 240.0 mg/kg/injection, schedule: Q01DX005 (ip), vehicle: Klucel (hydroxypropylcellulose) (HPC)): 0 of 6

O=S1(=O)c2ccccc2N(c2ccccc2)c2nnc(COc3ccccc3)n21
survivor count [4]: 6 of 6

COC(=O)C12OCC34C(CC5C(C)=C(O)C(=O)CC5(C)C3C(O)C1O)OC(=O)C(OC(=O)C=C(C)C)C24 (stereo not drawn)
survivor count (dose: 1.0 mg/kg/injection, schedule: Q01DX009 (ip), vehicle: saline): 6 of 6

CCN(CC)CCCNc1cnc2ccc(OC)cc2n1
survivor count (dose: 100.0 mg/kg/injection, schedule: Q04DX003 (ip), vehicle: saline): 3 of 6
survivor count (dose: 200.0 mg/kg/injection, schedule: Q04DX003 (ip), vehicle: saline): 1 of 6
survivor count (dose: 400.0 mg/kg/injection, schedule: Q04DX003 (ip), vehicle: saline): 0 of 6

c1ccc(C(c2ccccc2)[P+](c2ccccc2)(c2ccccc2)c2ccccc2)cc1
T/C (dose: 0.63 mg/kg/injection, schedule: Q01DX009 (ip), vehicle: Klucel (hydroxypropylcellulose) (HPC)): 126 % of control
survivor count (dose: 2.5 mg/kg/injection, schedule: Q01DX009 (ip), vehicle: Klucel (hydroxypropylcellulose) (HPC)): 5 of 6
survivor count (dose: 5.0 mg/kg/injection, schedule: Q01DX009 (ip), vehicle: Klucel (hydroxypropylcellulose) (HPC)): 3 of 6
survivor count (dose: 10.0 mg/kg/injection, schedule: Q01DX009 (ip), vehicle: Klucel (hydroxypropylcellulose) (HPC)): 1 of 6

CN(c1ccccc1)C1C2=C(OC(=O)C1(Cl)Cl)c1sc(-c3ccccc3)nc1CC2 (stereo not drawn)
survivor count [5]: 6 of 6
survivor count [6]: 6 of 6

COc1c(CBr)c(CBr)c(OC)c2c1C(=O)c1ccccc1C2=O
survivor count [4]: 4 of 6

CCN(CC)Cc1c(C)[nH]c2ccccc2c1=O
survivor count [7]: 0 of 6

CCC1COCC1Cc1cncn1C (stereo not drawn)
survivor count (dose: 240.0 mg/kg/injection, schedule: Q01DX005 (ip), vehicle: saline): 3 of 6

CN=NN/C1=C/CCCCCC1
survivor count (dose: 120.0 mg/kg/injection, schedule: Q01DX005 (ip), vehicle: Klucel + Tween-80): 3 of 6
survivor count (dose: 240.0 mg/kg/injection, schedule: Q01DX005 (ip), vehicle: Klucel + Tween-80): 0 of 6

CC(=O)OC(C)C1C2=C(C(=O)CC1(C)O)C(=O)c1c(ccc(-c3ccc4c(c3O)C(=O)C3=C(C4=O)C(C(C)OC(C)=O)C(C)(O)CC3=O)c1O)C2=O (stereo not drawn)
T/C (dose: 1.56 mg/kg/injection, schedule: Q01DX009 (ip), vehicle: saline with Tween-80): 144 % of control
survivor count (dose: 12.5 mg/kg/injection, schedule: Q01DX009 (ip), vehicle: saline with Tween-80): 6 of 6

CCOC(=O)C#Cc1cccc(C#CC(=O)OCC)c1
survivor count (dose: 200.0 mg/kg/injection, schedule: Q01DX001 (ip), vehicle: saline with Tween-80): 3 of 6
survivor count (dose: 400.0 mg/kg/injection, schedule: Q01DX001 (ip), vehicle: saline with Tween-80): 1 of 6

CCCCCCCCCCCCSC1=C(Cl)C(=O)C(OC)=C(OC)C1=O
survivor count (dose: 100.0 mg/kg/injection, schedule: Q01DX Z (ip), vehicle: saline): 1 of 3
survivor count (dose: 200.0 mg/kg/injection, schedule: Q01DX Z (ip), vehicle: saline): 0 of 3

O=C1CC(=O)C(Br)=C1Br
survivor count (dose: 1.5 mg/kg/injection, schedule: Q04DX003 (ip), vehicle: saline with Tween-80): 5 of 6
survivor count (dose: 3.0 mg/kg/injection, schedule: Q04DX003 (ip), vehicle: saline with Tween-80): 0 of 6

CCCOC(=O)/C=C(\F)C(=O)OCCC
survivor count [5]: 0 of 6
survivor count [8]: 0 of 6
survivor count [6]: 0 of 6

COc1cc(C2=[N+](C)CCc3cc4c(cc32)OCO4)cc(OC)c1OC
survivor count (dose: 200.0 mg/kg/injection, schedule: Q01DX005 (ip), vehicle: Klucel (hydroxypropylcellulose) (HPC)): 0 of 6

CCCCCC(=O)c1c(O)cc2c(c1O)C(=O)c1c(O)cc(OC)cc1C2=O
survivor count (dose: 25.0 mg/kg/injection, schedule: Q01DX009 (ip), vehicle: saline with Tween-80): 3 of 3

Cn1c([N+](=O)[O-])cnc1/C=C1\CCc2cc(OCCN3CCCC3)ccc2C1=O
survivor count [9]: 1 of 6 and 2 of 6
survivor count [10]: 0 of 6
survivor count [7]: 0 of 6

O=C(O)c1ccc(N=Nc2ccc(N(CCCl)CCCl)cc2C(=O)O)cc1
T/C (dose: 200.0 mg/kg/injection, schedule: Q01DX001 (ip), vehicle: Klucel (hydroxypropylcellulose) (HPC)): 125 % of control

CCCCN1C(=O)C2C3CCC(O3)C2C1=O (stereo not drawn)
survivor count [11]: 3 of 6

C=C(C)C1CC(=O)C2(C)C(C1)OC(=O)C2C(=O)OCC (stereo not drawn)
survivor count (dose: 100.0 mg/kg/injection, schedule: Q04DX002 (ip), vehicle: Klucel (hydroxypropylcellulose) (HPC)): 3 of 5

CC/C(=C(\CC)c1ccc(OC)cc1)c1ccc(OC)cc1
T/C [7]: 132 % of control [5 of 6 alive]

O/N=C/C(Cl)(Cl)Cl
survivor count (dose: 50.0 mg/kg/injection, schedule: Q01DX009 (ip), vehicle: saline): 0 of 6
survivor count (dose: 100.0 mg/kg/injection, schedule: Q01DX009 (ip), vehicle: saline): 0 of 6

N=C1C=CC2C(=Nc3ccccc3[N+]2=O)N1CCO (stereo not drawn)
T/C (dose: 60.0 mg/kg/injection, schedule: Q01DX005 (ip), vehicle: saline with Tween-80): 125 % of control [5 of 6 alive]
survivor count [11]: 0 of 6 and 1 of 6

CCSCC1C(=O)C23CC1CCC2C12COC(O)C1C(C)(C)C(O)CC2OC3=O (stereo not drawn)
survivor count [1]: 6 of 6

COC(=O)c1nc(N)nc(C(=O)OC)c1C(=O)/C=C/c1ccccc1
survivor count [11]: 0 of 6

C1=NC2=C(CCc3ccccc32)C2=NCCN12
survivor count [5]: 0 of 6
survivor count [8]: 0 of 6
survivor count [6]: 1 of 6

O=C(CCl)NC(=O)CCl
survivor count [9]: 5 of 6
survivor count [10]: 1 of 6

Clc1ccc(N=c2ccn3ccccc3c2)cc1Cl
survivor count [9]: 4 of 6
survivor count [10]: 0 of 6
survivor count [7]: 0 of 6

CNC(=O)OCc1c(COC(=O)NC)c(-c2ccc(Cl)cc2)n2c1CCC2
T/C (dose: 3.13 mg/kg/injection, schedule: Q01DX009 (ip), vehicle: Klucel (hydroxypropylcellulose) (HPC)): 127 % of control
survivor count [2]: 1 of 6
survivor count [3]: 0 of 6

Oc1c(Cl)cc(Cl)cc1/C=N\NC(=S)Nc1ccccc1
survivor count (dose: 400.0 mg/kg/injection, schedule: Q04DX002 (ip), vehicle: Klucel (hydroxypropylcellulose) (HPC)): 4 of 6
